{"source": "PubChem BioAssay AID1259308 (NCATS, 2017)", "screen": "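Candidate targets for better recombinant protein yield in mammalian cells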 (primary screen)", "cells": "human HEK293 embryonic kidney cells stably expressing firefly luciferase (HEK-CMV-Luc2-Hygro)", "reagents": "single siRNA against human genes, 0.8 pmol siRNA per well", "time to read-out": "72 h", "read-out": "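Luciferase light (ONE-Glo) measured on one replicate plate set and viability (CellTiter-Glo) on the other, scaled to a negative control siRNA, with robust z-scores and luciferase per cell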", "reading the numbers": "total luciferase, z-score: higher = more reporter protein produced", "active means": "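Active when the median/MAD z-score for overall luciferase is greater than 3; a gene was taken forward for validation with new siRNAs if at least two of its three siRNAs passed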", "meaning of the calls": "active = raised luciferase; inactive = no rise", "note": "Shown is a random part of about 59,000 reagents tested. About 1,510 of all reagents (2.6%) count as active. 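Calls use total luciferase alone and ignore viability, so some active siRNAs may act by altering cell number.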 Entries without a mark were called inactive. Not all columns of the deposit are shown."}
The opening 2 records as a preview:
{"Gene": "TCAIM (T cell activation inhibitor, mitochondrial)", "PubChem SID": "SID160725028", "total luciferase, z-score": 0.169}
{"Gene": "TCAIM (T cell activation inhibitor, mitochondrial)", "PubChem SID": "SID160763578", "total luciferase, z-score": 1.98}

The list itself, repeating the preview:
{"Gene": "TCAIM (T cell activation inhibitor, mitochondrial)", "PubChem SID": "SID160725028", "total luciferase, z-score": 0.169}
{"Gene": "TCAIM (T cell activation inhibitor, mitochondrial)", "PubChem SID": "SID160763578", "total luciferase, z-score": 1.98}
{"Gene": "TCAIM (T cell activation inhibitor, mitochondrial)", "PubChem SID": "SID160763579", "total luciferase, z-score": 2.49}
{"Gene": "CCNQ (cyclin Q)", "PubChem SID": "SID160754164", "total luciferase, z-score": 0.221}
{"Gene": "CCNQ (cyclin Q)", "PubChem SID": "SID160754165", "total luciferase, z-score": "3.1 (active)"}
{"Gene": "CCNQ (cyclin Q)", "PubChem SID": "SID160754166", "total luciferase, z-score": -0.241}
{"Gene": "ZNF134 (zinc finger protein 134)", "PubChem SID": "SID160719155", "total luciferase, z-score": 0.895}
{"Gene": "ZNF134 (zinc finger protein 134)", "PubChem SID": "SID160719156", "total luciferase, z-score": 2.74}
{"Gene": "ZNF134 (zinc finger protein 134)", "PubChem SID": "SID160719158", "total luciferase, z-score": -0.296}
{"Gene": "WDR4", "PubChem SID": "SID160729215", "total luciferase, z-score": -0.0446}
{"Gene": "WDR4", "PubChem SID": "SID160729216", "total luciferase, z-score": 0.784}
{"Gene": "WDR4", "PubChem SID": "SID160729217", "total luciferase, z-score": "3.99 (active)"}
{"Gene": "NECAB2 (N-terminal EF-hand calcium binding protein 2)", "PubChem SID": "SID160741908", "total luciferase, z-score": -0.73}
{"Gene": "NECAB2 (N-terminal EF-hand calcium binding protein 2)", "PubChem SID": "SID160741909", "total luciferase, z-score": 0.515}
{"Gene": "NECAB2 (N-terminal EF-hand calcium binding protein 2)", "PubChem SID": "SID160741910", "total luciferase, z-score": -1.28}
{"Gene": "ATP1B2 (ATPase Na+/K+ transporting subunit beta 2)", "PubChem SID": "SID160721463", "total luciferase, z-score": -2.28}
{"Gene": "ATP1B2 (ATPase Na+/K+ transporting subunit beta 2)", "PubChem SID": "SID160721474", "total luciferase, z-score": -0.0422}
{"Gene": "ATP1B2 (ATPase Na+/K+ transporting subunit beta 2)", "PubChem SID": "SID160721484", "total luciferase, z-score": 0.96}
{"Gene": "FGF19 (fibroblast growth factor 19)", "PubChem SID": "SID160723562", "total luciferase, z-score": -0.99}
{"Gene": "FGF19 (fibroblast growth factor 19)", "PubChem SID": "SID160723563", "total luciferase, z-score": 0.239}
{"Gene": "FGF19 (fibroblast growth factor 19)", "PubChem SID": "SID160723564", "total luciferase, z-score": -0.176}
{"Gene": "PELO (pelota mRNA surveillance and ribosome rescue factor)", "PubChem SID": "SID160741505", "total luciferase, z-score": 1.19}
{"Gene": "PELO (pelota mRNA surveillance and ribosome rescue factor)", "PubChem SID": "SID160741506", "total luciferase, z-score": -0.25}
{"Gene": "PELO (pelota mRNA surveillance and ribosome rescue factor)", "PubChem SID": "SID160741507", "total luciferase, z-score": -0.648}
{"Gene": "SH3GLB1 (SH3 domain containing GRB2 like, endophilin B1)", "PubChem SID": "SID160740053", "total luciferase, z-score": 2.73}
{"Gene": "SH3GLB1 (SH3 domain containing GRB2 like, endophilin B1)", "PubChem SID": "SID160740054", "total luciferase, z-score": -1.05}
{"Gene": "SH3GLB1 (SH3 domain containing GRB2 like, endophilin B1)", "PubChem SID": "SID160740056", "total luciferase, z-score": 1.75}
{"Gene": "GRIP2 (glutamate receptor interacting protein 2)", "PubChem SID": "SID160750625", "total luciferase, z-score": -0.178}
{"Gene": "GRIP2 (glutamate receptor interacting protein 2)", "PubChem SID": "SID160750626", "total luciferase, z-score": -0.663}
{"Gene": "GRIP2 (glutamate receptor interacting protein 2)", "PubChem SID": "SID160750627", "total luciferase, z-score": -0.727}
{"Gene": "TEKT2 (tektin 2)", "PubChem SID": "SID160738640", "total luciferase, z-score": 0.31}
{"Gene": "TEKT2 (tektin 2)", "PubChem SID": "SID160738641", "total luciferase, z-score": 0.673}
{"Gene": "TEKT2 (tektin 2)", "PubChem SID": "SID160738642", "total luciferase, z-score": -0.0633}
{"Gene": "ZIC1 (Zic family zinc finger 1)", "PubChem SID": "SID160718969", "total luciferase, z-score": 2.11}
{"Gene": "ZIC1 (Zic family zinc finger 1)", "PubChem SID": "SID160718970", "total luciferase, z-score": 0.61}
{"Gene": "ZIC1 (Zic family zinc finger 1)", "PubChem SID": "SID160718971", "total luciferase, z-score": -2.05}
{"Gene": "EIF2S2P7", "PubChem SID": "SID160726000", "total luciferase, z-score": 2.05}
{"Gene": "EIF2S2P7", "PubChem SID": "SID160770107", "total luciferase, z-score": 0.334}
{"Gene": "EIF2S2P7", "PubChem SID": "SID160770108", "total luciferase, z-score": -0.885}
{"Gene": "AFG3L2 (AFG3 like matrix AAA peptidase subunit 2)", "PubChem SID": "SID160729570", "total luciferase, z-score": 0.537}
{"Gene": "AFG3L2 (AFG3 like matrix AAA peptidase subunit 2)", "PubChem SID": "SID160729571", "total luciferase, z-score": -0.425}
{"Gene": "AFG3L2 (AFG3 like matrix AAA peptidase subunit 2)", "PubChem SID": "SID160729572", "total luciferase, z-score": -1.92}
